This is one part of the list.
Assays:
Assay in all cases: glycan array binding signal (z-score within array); higher = stronger binding
Details in all cases: glycan notation: IUPAC condensed, linker removed
Neu5Ac(a2-3)Gal(b1-4)Glc = biological target: Neu5Ac(a2-3)Gal(b1-4)Glc
How it was run: (§1)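 Glycan array binding is given as a within-array Z-score, which can be read as non-binding when negative. The arrays, 3228 of them, came from the Consortium for Functional Glycomics database and were retained only where the protein sequence was available. Z-scores were averaged across arrays of the same protein sequence at different concentrations or buffers and across linkers.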

[1] = biological target: Neu5Ac(a2-3)Gal(b1-4)GlcNAc
How it was run: as §1

[2] = biological target: Neu5Ac(a2-3)Gal(b1-4)GlcNAc(b1-2)Man
How it was run: as §1

[3] = biological target: Neu5Ac(a2-3)Gal(b1-4)GlcNAc(b1-2)Man(a1-3)[GlcNAc(b1-4)][Neu5Ac(a2-3)Gal(b1-4)GlcNAc(b1-2)Man(a1-6)]Man(b1-4)GlcNAc(b1-4)GlcNAc
How it was run: as §1

[4] = biological target: Neu5Ac(a2-3)Gal(b1-4)GlcNAc(b1-2)Man(a1-3)[Neu5Ac(a2-3)Gal(b1-4)GlcNAc(b1-2)Man(a1-6)]Man(b1-4)GlcNAc(b1-4)GlcNAc
How it was run: as §1

[5] = biological target: Neu5Ac(a2-3)Gal(b1-4)GlcNAc(b1-2)Man(a1-3)[Neu5Ac(a2-3)Gal(b1-4)GlcNAc(b1-2)Man(a1-6)]Man(b1-4)GlcNAc(b1-4)[Fuc(a1-6)]GlcNAc
How it was run: as §1

[6] = biological target: Neu5Ac(a2-3)Gal(b1-4)GlcNAc(b1-2)Man(a1-3)[Neu5Ac(a2-6)Gal(b1-4)GlcNAc(b1-2)Man(a1-6)]Man(b1-4)GlcNAc(b1-4)GlcNAc
How it was run: as §1

[7] = biological target: Neu5Ac(a2-3)Gal(b1-4)GlcNAc(b1-2)[Neu5Ac(a2-3)Gal(b1-4)GlcNAc(b1-4)]Man(a1-3)[GlcNAc(b1-4)][Neu5Ac(a2-3)Gal(b1-4)GlcNAc(b1-2)[Neu5Ac(a2-3)Gal(b1-4)GlcNAc(b1-6)]Man(a1-6)]Man(b1-4)GlcNAc(b1-4)GlcNAc
How it was run: as §1

[8] = biological target: Neu5Ac(a2-3)Gal(b1-4)GlcNAc(b1-2)[Neu5Ac(a2-3)Gal(b1-4)GlcNAc(b1-4)]Man(a1-3)[GlcNAc(b1-4)][Neu5Ac(a2-3)Gal(b1-4)GlcNAc(b1-4)Man(a1-6)]Man(b1-4)GlcNAc(b1-4)GlcNAc
How it was run: as §1

[9] = biological target: Neu5Ac(a2-3)Gal(b1-4)GlcNAc(b1-2)[Neu5Ac(a2-3)Gal(b1-4)GlcNAc(b1-6)]Man(a1-6)[Neu5Ac(a2-3)Gal(b1-4)GlcNAc(b1-2)Man(a1-3)]Man(b1-4)GlcNAc(b1-4)GlcNAc
How it was run: as §1

[10] = biological target: Neu5Ac(a2-3)Gal(b1-4)GlcNAc(b1-2)[Neu5Ac(a2-3)Gal(b1-4)GlcNAc(b1-6)]Man(a1-6)[Neu5Ac(a2-3)Gal(b1-4)GlcNAc(b1-2)Man(a1-3)][GlcNAc(b1-4)]Man(b1-4)GlcNAc(b1-4)GlcNAc
How it was run: as §1

[11] = biological target: Neu5Ac(a2-3)Gal(b1-4)GlcNAc(b1-3)Gal
How it was run: as §1

[12] = biological target: Neu5Ac(a2-3)Gal(b1-4)GlcNAc(b1-3)Gal(b1-3)GlcNAc
How it was run: as §1

[13] = biological target: Neu5Ac(a2-3)Gal(b1-4)GlcNAc(b1-3)Gal(b1-4)GlcNAc
How it was run: as §1

[14] = biological target: Neu5Ac(a2-3)Gal(b1-4)GlcNAc(b1-3)Gal(b1-4)GlcNAc(b1-2)Man(a1-3)[Neu5Ac(a2-3)Gal(b1-4)GlcNAc(b1-3)Gal(b1-4)GlcNAc(b1-2)Man(a1-6)]Man(b1-4)GlcNAc(b1-4)GlcNAc
How it was run: as §1

[15] = biological target: Neu5Ac(a2-3)Gal(b1-4)GlcNAc(b1-3)Gal(b1-4)GlcNAc(b1-3)Gal(b1-4)GlcNAc
How it was run: as §1

[16] = biological target: Neu5Ac(a2-3)Gal(b1-4)GlcNAc(b1-3)Gal(b1-4)GlcNAc(b1-3)Gal(b1-4)GlcNAc(b1-2)Man(a1-3)[Neu5Ac(a2-3)Gal(b1-4)GlcNAc(b1-3)Gal(b1-4)GlcNAc(b1-3)Gal(b1-4)GlcNAc(b1-2)Man(a1-6)]GalNAc
How it was run: as §1

[17] = biological target: Neu5Ac(a2-3)Gal(b1-4)GlcNAc(b1-3)Gal(b1-4)GlcNAc(b1-3)GalNAc
How it was run: as §1

[18] = biological target: Neu5Ac(a2-3)Gal(b1-4)GlcNAc(b1-3)Gal(b1-4)GlcNAc(b1-3)[Neu5Ac(a2-3)Gal(b1-4)GlcNAc(b1-3)Gal(b1-4)GlcNAc(b1-6)]GalNAc
How it was run: as §1

[19] = biological target: Neu5Ac(a2-3)Gal(b1-4)GlcNAc(b1-3)Gal(b1-4)GlcNAc(b1-6)[Gal(b1-3)]GalNAc
How it was run: as §1

[20] = biological target: Neu5Ac(a2-3)Gal(b1-4)GlcNAc(b1-3)Gal(b1-4)[Fuc(a1-3)]GlcNAc
How it was run: as §1

[21] = biological target: Neu5Ac(a2-3)Gal(b1-4)GlcNAc(b1-3)GalNAc
How it was run: as §1

[22] = biological target: Neu5Ac(a2-3)Gal(b1-4)GlcNAc(b1-3)[Neu5Ac(a2-3)Gal(b1-4)GlcNAc(b1-6)]GalNAc
How it was run: as §1

[23] = biological target: Neu5Ac(a2-3)Gal(b1-4)GlcNAc(b1-6)GalNAc
How it was run: as §1

[24] = biological target: Neu5Ac(a2-3)Gal(b1-4)GlcNAc(b1-6)[Gal(b1-3)]GalNAc
How it was run: as §1

[25] = biological target: Neu5Ac(a2-3)Gal(b1-4)GlcNAc(b1-6)[Neu5Ac(a2-3)Gal(b1-3)]GalNAc
How it was run: as §1

[26] = biological target: Neu5Ac(a2-3)Gal(b1-4)GlcNAc6S
How it was run: as §1

[27] = biological target: Neu5Ac(a2-3)Gal(b1-4)[Fuc(a1-3)]GlcNAc
How it was run: as §1

[28] = biological target: Neu5Ac(a2-3)Gal(b1-4)[Fuc(a1-3)]GlcNAc(b1-2)Man
How it was run: as §1

[29] = biological target: Neu5Ac(a2-3)Gal(b1-4)[Fuc(a1-3)]GlcNAc(b1-3)Gal
How it was run: as §1

[30] = biological target: Neu5Ac(a2-3)Gal(b1-4)[Fuc(a1-3)]GlcNAc(b1-3)Gal(b1-4)GlcNAc
How it was run: as §1

[31] = biological target: Neu5Ac(a2-3)Gal(b1-4)[Fuc(a1-3)]GlcNAc(b1-3)Gal(b1-4)[Fuc(a1-3)]GlcNAc(b1-3)Gal(b1-4)[Fuc(a1-3)]GlcNAc
How it was run: as §1

[32] = biological target: Neu5Ac(a2-3)Gal(b1-4)[Fuc(a1-3)]GlcNAc(b1-3)GalNAc
How it was run: as §1

[33] = biological target: Neu5Ac(a2-3)Gal(b1-4)[Fuc(a1-3)]GlcNAc(b1-6)[Gal(b1-3)]GalNAc
How it was run: as §1

[34] = biological target: Neu5Ac(a2-3)Gal(b1-4)[Fuc(a1-3)]GlcNAc(b1-6)[Neu5Ac(a2-3)Gal(b1-3)]GalNAc
How it was run: as §1

[35] = biological target: Neu5Ac(a2-3)Gal(b1-4)[Fuc(a1-3)]GlcNAc6S
How it was run: as §1

[36] = biological target: Neu5Ac(a2-3)Gal6S(b1-4)GlcNAc
How it was run: as §1

[37] = biological target: Neu5Ac(a2-3)Gal6S(b1-4)[Fuc(a1-3)]GlcNAc
How it was run: as §1

B1: FimA (Actinomyces oris) (protein)
chain: MHHHHHHSSGVDLGTENLYFQSNAETPNYGNIKTDATGSLVIHKHLTGGGKDIGTPTGTAQNADDKGPAVEGVVFTAYPITDINLKDPAGWDTISNLSRTGVPDSACANPAAPTLGAHQFGTPKVSPATTKEGLATITEMPVQAYLVCETTTPGDIVQKAKPFVVTIPHPNTAAGADGQWIYDVNVYPKNEAIDVDKTIQAQKLNGYGVGSLIKFPVESTAPTLDAKSFYKYFQLKDTLDERLSEVTATDVSLEGTPLQPTDYKVETKQQTVTVTFTAEGLKKIKAAPGKKVSAVFQGKVTKAGNGAITNRAQVISDTLYAEQPPTPETPPTDPENPPTSDEVISRWGDLSIKKVDTHQQGQTKAGLQGAQFQLYKAKNAYANTCSNEKEGAPIAINGQTTLTTDAQGAIDIKGLFISDSIDGADRDNQVNAMERCYVLVETKAPAGYVLPAGNGAATPVKVKAGEETTDNVTVENTKQSVPGLPLTG
Neu5Ac(a2-3)Gal(b1-4)Glc
  glycan array binding signal (z-score): -0.06
[1]
  glycan array binding signal (z-score): -0.025
[2]
  glycan array binding signal (z-score): -0.543
[3]
  glycan array binding signal (z-score): -0.312
[4]
  glycan array binding signal (z-score): -0.315
[5]
  glycan array binding signal (z-score): -0.389
[6]
  glycan array binding signal (z-score): -0.809
[7]
  glycan array binding signal (z-score): 0.563
[8]
  glycan array binding signal (z-score): -0.539
[9]
  glycan array binding signal (z-score): -0.142
[10]
  glycan array binding signal (z-score): -0.527
[11]
  glycan array binding signal (z-score): 0.18
[12]
  glycan array binding signal (z-score): -0.592
[13]
  glycan array binding signal (z-score): 1.8
[14]
  glycan array binding signal (z-score): 0.642
[15]
  glycan array binding signal (z-score): 0.624
[16]
  glycan array binding signal (z-score): 0.065
[17]
  glycan array binding signal (z-score): -0.901
[18]
  glycan array binding signal (z-score): -0.237
[19]
  glycan array binding signal (z-score): 1.32
[20]
  glycan array binding signal (z-score): -0.822
[21]
  glycan array binding signal (z-score): -0.305
[22]
  glycan array binding signal (z-score): -0.289
[23]
  glycan array binding signal (z-score): -0.287
[24]
  glycan array binding signal (z-score): -0.629
[25]
  glycan array binding signal (z-score): -0.8
[26]
  glycan array binding signal (z-score): -0.213
[27]
  glycan array binding signal (z-score): -0.6
[28]
  glycan array binding signal (z-score): 0.157
[29]
  glycan array binding signal (z-score): -0.326
[30]
  glycan array binding signal (z-score): 0.151
[31]
  glycan array binding signal (z-score): -0.105
[32]
  glycan array binding signal (z-score): 0.75
[33]
  glycan array binding signal (z-score): 0.766
[34]
  glycan array binding signal (z-score): -0.351
[35]
  glycan array binding signal (z-score): -0.128
[36]
  glycan array binding signal (z-score): -0.585
[37]
  glycan array binding signal (z-score): -0.916
